{
  "source": "paper PMC7819943",
  "about": "“Rice protein-binding microarrays: a tool to detect cis-acting elements near promoter regions in rice”",
  "note": "Some of the results follow.",
  "data": [
    {"target": "T1, OsSMF1 (Oryza sativa, UniProt Q6ZLB0 1-436)", "T1 sequence": "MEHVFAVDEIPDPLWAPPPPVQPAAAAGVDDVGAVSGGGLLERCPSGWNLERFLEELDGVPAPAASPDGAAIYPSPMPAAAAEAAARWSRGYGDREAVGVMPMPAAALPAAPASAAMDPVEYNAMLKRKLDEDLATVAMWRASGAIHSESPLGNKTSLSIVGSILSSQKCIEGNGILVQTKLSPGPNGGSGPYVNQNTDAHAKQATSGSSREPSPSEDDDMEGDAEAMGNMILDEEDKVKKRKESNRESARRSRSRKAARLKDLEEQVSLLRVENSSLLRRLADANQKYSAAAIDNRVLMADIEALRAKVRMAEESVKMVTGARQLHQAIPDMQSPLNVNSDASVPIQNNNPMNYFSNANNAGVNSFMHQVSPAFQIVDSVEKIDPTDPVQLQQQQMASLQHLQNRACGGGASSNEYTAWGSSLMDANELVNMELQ", "assay": "protein-binding microarray (RPBM); PBS, 2% BSA, 51.3 ng/ul salmon testes DNA, 50 uM zinc acetate, 200 nM TF, 25 C, 1 h; high values mean tight binding", "settings": "protein: recombinant; tags: N-terminal polyhistidine and DsRed monomer fusion (pET32a); chain copies: 2; label: CyDye5-dUTP incorporated in the synthesized complementary strand; 3' TTTTT single-stranded linker to array surface; dsDNA, one strand shown", "outline": "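The binding signal is fluorescence intensity per feature, in arbitrary units, read on an Axon 4000B scanner. Polyhistidine- and DsRed-tagged transcription factors (N-terminal fusions) from E. coli BL21-CodonPlus were purified on Ni–NTA and applied at 200 nM for 1 h at 25 °C to a double-stranded, BSA-blocked custom Agilent array in buffer with 50 µM zinc acetate.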", "values": [
      {"sequence": "GATGTTTGGTCCATGTAGCCACGCAATATTCTTCGATATTCGGAGTCACCTAGTGCAG", "binding signal": "4560 fluorescence intensity (a.u.)"},
      {"sequence": "GACACGGTTGAGTGCACGACTACACGAGTGACGTGAGTCTCGGAGTCACCTAGTGCAG", "binding signal": "4040 fluorescence intensity (a.u.)"},
      {"sequence": "ATCAGATTTACCGGCGTATCTTGACGGCCACGTCAGTCCCCGGAGTCACCTAGTGCAG", "binding signal": "19100 fluorescence intensity (a.u.)"},
      {"sequence": "TGTTTCTCCAGTCTCCACATCACTGCGTGTCTGCGTCGCCCGGAGTCACCTAGTGCAG", "binding signal": "8530 fluorescence intensity (a.u.)"},
      {"sequence": "GTTTAGATGGTGGTTTTGGCTGACGTGTCACCTACGTGGCCGGAGTCACCTAGTGCAG", "binding signal": "24200 fluorescence intensity (a.u.)"},
      {"sequence": "GCGTGCCGAAGGTGTGTCCCCTGCACCGGCTCCGGCAGGTCGGAGTCACCTAGTGCAG", "binding signal": "9960 fluorescence intensity (a.u.)"},
      {"sequence": "GACGCCGCCAACGCCACGCTCTGGTCCTCCTTCGACCACCCGGAGTCACCTAGTGCAG", "binding signal": "3560 fluorescence intensity (a.u.)"},
      {"sequence": "TCCTCTCGCCGCCGCCGCGTCCGCTCCACCCGGCGGCGGACGGAGTCACCTAGTGCAG", "binding signal": "3450 fluorescence intensity (a.u.)"},
      {"sequence": "GCGCAAGTGCACGTACGAAAATGACAGCGAGTGAGGTGGCCGGAGTCACCTAGTGCAG", "binding signal": "3790 fluorescence intensity (a.u.)"},
      {"sequence": "AGACTGACAGGTGGGCCATGCGCCACGCACGTGCCACTGACGGAGTCACCTAGTGCAG", "binding signal": "3960 fluorescence intensity (a.u.)"},
      {"sequence": "TCCCAATATGACGTCGGAATGGTGCTGTCTATGTCTACTCCGGAGTCACCTAGTGCAG", "binding signal": "5450 fluorescence intensity (a.u.)"},
      {"sequence": "ATATGCTCATAGGGGTAGGGTTTGCGTGCGTGTGTTTATACGGAGTCACCTAGTGCAG", "binding signal": "3470 fluorescence intensity (a.u.)"},
      {"sequence": "CCCAGCCTCCATCACCCAGTCCACCTCCCCACCTCCGCCGCGGAGTCACCTAGTGCAG", "binding signal": "3940 fluorescence intensity (a.u.)"},
      {"sequence": "TCCACATGCATATATGCATGACACAGCAAAATATATGTTACGGAGTCACCTAGTGCAG", "binding signal": "4980 fluorescence intensity (a.u.)"},
      {"sequence": "TATGTAATTATTGCTAGTGGATGATGATGTGGCATGGTTGCGGAGTCACCTAGTGCAG", "binding signal": "16600 fluorescence intensity (a.u.)"},
      {"sequence": "GCGGGGCTTCGCGACGCTGAAGTGGATAGTGATACTGCTCCGGAGTCACCTAGTGCAG", "binding signal": "3140 fluorescence intensity (a.u.)"},
      {"sequence": "TATAGAGCACACTAACGTTATTGTTTTCACGTTGTTTCGACGGAGTCACCTAGTGCAG", "binding signal": "14300 fluorescence intensity (a.u.)"},
      {"sequence": "CCCTCATGAGGGCGTTGTCGTGCTGTCTCACCCCTCAAGGCGGAGTCACCTAGTGCAG", "binding signal": "3660 fluorescence intensity (a.u.)"},
      {"sequence": "TGCAGCCCAACTCGTCGTCCACCTCACACTCGCCGCAGCCCGGAGTCACCTAGTGCAG", "binding signal": "5450 fluorescence intensity (a.u.)"},
      {"sequence": "GATGCGCCACTGGTTGACCTGTTCTTTGTCGAACATGTTGCGGAGTCACCTAGTGCAG", "binding signal": "3920 fluorescence intensity (a.u.)"},
      {"sequence": "ATGGGACTTATCTCGGTGAGGATGTTGCTGTTAAAATTCTCGGAGTCACCTAGTGCAG", "binding signal": "3610 fluorescence intensity (a.u.)"},
      {"sequence": "GGCATCTGCGGCGCGCGCGCGTCATCCTCATCCCCAGCTACGGAGTCACCTAGTGCAG", "binding signal": "4130 fluorescence intensity (a.u.)"},
      {"sequence": "GGCCTCGTCGCCGAGACAGCCAACTACGCCGCGGTGGCAGCGGAGTCACCTAGTGCAG", "binding signal": "4320 fluorescence intensity (a.u.)"},
      {"sequence": "CCTCGAGATTTGCGTCAGAACACAAGAGCGACGACCCCACCGGAGTCACCTAGTGCAG", "binding signal": "3660 fluorescence intensity (a.u.)"},
      {"sequence": "CTCGGGGTTAAGCAGAGGTTATCGTCCCCGCCGCAGGTTACGGAGTCACCTAGTGCAG", "binding signal": "4020 fluorescence intensity (a.u.)"},
      {"sequence": "CTCTGGCGCGCTCGCGCCGGTCCATGTCACGTCAAGCAAACGGAGTCACCTAGTGCAG", "binding signal": "4310 fluorescence intensity (a.u.)"},
      {"sequence": "ACTCGTCGGTAGTAATCAGTCAGCTCATCAGCATCTGATCCGGAGTCACCTAGTGCAG", "binding signal": "3280 fluorescence intensity (a.u.)"},
      {"sequence": "TCGTGCTACAGATCTATAGCACACTACTCTTCTCTCTCTTCGGAGTCACCTAGTGCAG", "binding signal": "3370 fluorescence intensity (a.u.)"},
      {"sequence": "AATCGCCGTACCAACGCCCACCTCGTTGGGTACCGTCATACGGAGTCACCTAGTGCAG", "binding signal": "3260 fluorescence intensity (a.u.)"},
      {"sequence": "ATCCTTTTCACAAATTACAACTAGTCCCAGCCTCCCAGTTCGGAGTCACCTAGTGCAG", "binding signal": "27500 fluorescence intensity (a.u.)"},
      {"sequence": "TCACGCTAACTCTGACGTCGATCTCCTGTGAAGTCGTGGCCGGAGTCACCTAGTGCAG", "binding signal": "8220 fluorescence intensity (a.u.)"},
      {"sequence": "CACATTGAGTCAGCTGCCACGTCGGATAAAACCGGAGTCACGGAGTCACCTAGTGCAG", "binding signal": "15000 fluorescence intensity (a.u.)"},
      {"sequence": "AGCCAGTAAGAGATCAACGGCTCTCAGTGAAGCAACGTCTCGGAGTCACCTAGTGCAG", "binding signal": "20500 fluorescence intensity (a.u.)"},
      {"sequence": "AGGGAATTACAACAAACAGTCCAGTCATTTCACCCACCGCCGGAGTCACCTAGTGCAG", "binding signal": "5650 fluorescence intensity (a.u.)"},
      {"sequence": "AACATTGAATTGGATCGTTGACTTGGACGAGTCATCGCCGCGGAGTCACCTAGTGCAG", "binding signal": "4700 fluorescence intensity (a.u.)"},
      {"sequence": "GCGTGCCACATCAGCACCACGTAGGATCCTAGAGGGGCTACGGAGTCACCTAGTGCAG", "binding signal": "25300 fluorescence intensity (a.u.)"},
      {"sequence": "CTCCGTCCACTGGACAGGGCAGAGGCTGCCTACCAGACACCGGAGTCACCTAGTGCAG", "binding signal": "4640 fluorescence intensity (a.u.)"},
      {"sequence": "CCCCTTTAAATTCACCCATGCACACGTCGTCGCAAATCACCGGAGTCACCTAGTGCAG", "binding signal": "3410 fluorescence intensity (a.u.)"},
      {"sequence": "CCTCCTCGCGTCAGGAGGCGCAACTGCGCGTGCAAACAAACGGAGTCACCTAGTGCAG", "binding signal": "14000 fluorescence intensity (a.u.)"},
      {"sequence": "CAACAGCAAGAGGAGCTTCTCTTCCAAATGCCAGGACATGCGGAGTCACCTAGTGCAG", "binding signal": "3270 fluorescence intensity (a.u.)"},
      {"sequence": "CCGTTCGCCATTCGTTTCCACGCATCCCTTCCACTGACTCCGGAGTCACCTAGTGCAG", "binding signal": "3840 fluorescence intensity (a.u.)"},
      {"sequence": "GATTTCTGATCTGTGCCGCGTGGACGCCATCCTCTCCAGGCGGAGTCACCTAGTGCAG", "binding signal": "35300 fluorescence intensity (a.u.)"}
    ]}
  ]
}
